Assay results taken from US6849632B2, “Heteroaryl alkyl piperazine derivatives” (CV Therapeutics, Inc., priority 2000, dated 2005).
For at least one compound, name, drawing or mass did not settle the structure.

Tested on: mitochondrial fatty acid oxidation using palmitoyl CoA as substrate
Test: Palmitoyl CoA oxidation in isolated rat heart mitochondria
Type: biochemical
Settings: 100 μm compound, 15 min at 30° C.
Description: Rat heart mitochondria were isolated by the method of Nedergard and Cannon (Methods in Enzymol. 55, 3, 1979). Palmitoyl CoA oxidation—The Palmityl CoA oxidation was carried out in a total volume of 100 micro liters containing the following agents: 110 mM KCl, 33 mM Tris buffer at pH 8, 2 mM KPi, 2 mM MgCl2, 0.1 mM EDTA, 14.7 microM defatted BSA, 0.5 mM malic acid, 13 mM carnitine, 1 mM ADP, 52 micrograms of mitochondrial protein, and 16 microM 1-C14 palmitoyl CoA (Sp. Activity 60 mCi/mmole; 20 microCi/ml, using 5 microliters per assay). The compounds of this invention were added in a DMSO solution at the following concentrations: 100 microM, and 50 microM. In each assay, a DMSO control was used. After 15 min at 30° C., the enzymatic reaction was centrifuged (20,000 g for 1 min), and 70 microliters of the supernatant was added to an activated reverse phase silicic acid column (approximately 0.5 ml of silicic acid). The column was eluted with 2 ml of water, and 0.5 ml of the eluent was used for scintillation counting to determine the amount of C^14 trapped as C^14 bicarbonate ion.

Structure (SMILES): Cc1cccc(C)c1NC(=O)CN1CCN(CC(O)COc2cnc3ccccc3n2)CC1 (stereo not shown) [Compound 70, N-(2,6-dimethylphenyl)-2-{4-[2-hydroxy-3-(quinoxalin-2-yloxy)-propyl]-piperazin-1-yl}acetamide]
- Inhibition of mitochondrial fatty acid oxidation using palmitoyl CoA as substrate - % of Control, 100 μm (%): 12%
